# Data taken from the supplement of paper PMC12067093, “Discovery and optimisation of a covalent ligand for TRIM25 and its application to targeted protein ubiquitination” (Chemical Science, 2025).
# Protein sequences, listed by entry. Tags and fused reporters are not part of them.
# UniProt Q00987, whole entry, looked up: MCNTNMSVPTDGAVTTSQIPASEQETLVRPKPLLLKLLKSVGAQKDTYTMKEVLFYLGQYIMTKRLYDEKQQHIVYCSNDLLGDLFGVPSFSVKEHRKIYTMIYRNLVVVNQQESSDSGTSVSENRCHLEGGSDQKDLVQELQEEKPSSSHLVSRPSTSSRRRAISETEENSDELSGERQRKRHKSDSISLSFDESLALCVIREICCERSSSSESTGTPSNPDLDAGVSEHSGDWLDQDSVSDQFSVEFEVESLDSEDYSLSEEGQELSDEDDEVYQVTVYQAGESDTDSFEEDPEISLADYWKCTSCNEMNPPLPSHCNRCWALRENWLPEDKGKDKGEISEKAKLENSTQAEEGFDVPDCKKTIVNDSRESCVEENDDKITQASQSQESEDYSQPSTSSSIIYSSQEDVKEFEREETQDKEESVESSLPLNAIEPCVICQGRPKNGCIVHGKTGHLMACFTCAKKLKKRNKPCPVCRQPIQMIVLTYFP
# The list shows a part of the results.
# Compound: CC1Cc2ccccc2N1C(=O)C1CCCN(C1)C(=O)CCl (mixture of isomers) [TRIM25 ligand 11 (diastereomer mixture)]
# Test: probe-labelled cysteine peptide fold change vs DMSO (competition) (log2 fold change); higher = less target engagement (more negative = stronger competition)
# Settings: THP-1, incubation time: 4 h
# 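Further: competitive chemoproteomic profiling in live THP-1 cells with an iodoacetamide desthiobiotin (IA-DTB) probe, comparing probe-labelled peptide intensities in compound-treated cells against DMSO-treated controls.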
target,measurement,setting,value
MDM2_Q00987_77_QQHIVYCSNDLLGDLFGVPSFSVK (UniProt Q00987),probe-labelled cysteine peptide fold change,10 µM,0.283
same,probe-labelled cysteine peptide fold change,50 µM,0.41
